Assay results: PMC11178195
Results are given in words; binding and its absence hold for the method and conditions named. In cells and extracts the contact can be indirect. Some entries that bind do so weakly or less than the wild type.

Amino acid sequences for entries named in this document (tags omitted).
UniProt P35222: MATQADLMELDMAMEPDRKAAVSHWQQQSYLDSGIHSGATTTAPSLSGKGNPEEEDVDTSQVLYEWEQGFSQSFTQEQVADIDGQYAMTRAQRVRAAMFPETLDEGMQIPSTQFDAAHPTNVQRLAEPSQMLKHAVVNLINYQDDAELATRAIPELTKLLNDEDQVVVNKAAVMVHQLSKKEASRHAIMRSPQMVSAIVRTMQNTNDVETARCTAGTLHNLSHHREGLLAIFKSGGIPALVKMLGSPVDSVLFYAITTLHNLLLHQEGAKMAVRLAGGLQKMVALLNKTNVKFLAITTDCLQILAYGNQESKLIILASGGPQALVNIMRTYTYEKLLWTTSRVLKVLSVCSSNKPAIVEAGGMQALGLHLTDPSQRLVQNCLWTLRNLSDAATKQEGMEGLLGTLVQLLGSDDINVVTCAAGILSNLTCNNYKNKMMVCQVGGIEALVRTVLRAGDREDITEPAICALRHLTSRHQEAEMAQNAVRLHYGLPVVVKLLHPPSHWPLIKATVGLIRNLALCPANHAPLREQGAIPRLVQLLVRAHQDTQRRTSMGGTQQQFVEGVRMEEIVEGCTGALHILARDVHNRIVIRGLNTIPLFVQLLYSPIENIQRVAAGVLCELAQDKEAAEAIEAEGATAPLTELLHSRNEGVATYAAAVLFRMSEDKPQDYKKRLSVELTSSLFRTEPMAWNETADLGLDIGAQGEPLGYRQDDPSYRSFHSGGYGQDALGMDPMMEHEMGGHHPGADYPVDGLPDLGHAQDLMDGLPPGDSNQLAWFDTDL

Target: T1, Cadherin-11 (human (endogenous in Ewing sarcoma cell lines)) (UniProt P55287)
T1 sequence: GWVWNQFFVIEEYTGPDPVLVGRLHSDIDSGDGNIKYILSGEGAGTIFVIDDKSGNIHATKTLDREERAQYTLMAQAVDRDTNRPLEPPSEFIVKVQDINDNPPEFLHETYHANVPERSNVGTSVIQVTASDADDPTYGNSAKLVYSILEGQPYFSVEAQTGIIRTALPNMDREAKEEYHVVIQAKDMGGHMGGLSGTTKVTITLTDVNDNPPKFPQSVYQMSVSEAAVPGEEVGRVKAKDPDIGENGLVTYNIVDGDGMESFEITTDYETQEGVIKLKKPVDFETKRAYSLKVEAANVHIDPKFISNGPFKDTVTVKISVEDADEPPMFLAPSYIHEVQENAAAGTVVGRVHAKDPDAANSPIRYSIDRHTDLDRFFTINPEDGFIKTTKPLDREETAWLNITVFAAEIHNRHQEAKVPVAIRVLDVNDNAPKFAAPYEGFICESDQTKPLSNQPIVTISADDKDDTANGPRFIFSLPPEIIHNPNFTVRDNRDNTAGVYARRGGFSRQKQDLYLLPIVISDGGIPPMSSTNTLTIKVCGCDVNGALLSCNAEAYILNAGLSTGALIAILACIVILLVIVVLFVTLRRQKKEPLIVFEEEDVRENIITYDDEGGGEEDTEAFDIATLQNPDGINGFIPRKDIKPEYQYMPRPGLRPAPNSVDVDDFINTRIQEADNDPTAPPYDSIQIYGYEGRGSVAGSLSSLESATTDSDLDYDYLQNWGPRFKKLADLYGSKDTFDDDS
Test: co-IP; Pierce Co-immunoprecipitation Kit; endogenous proteins of Ewing sarcoma cells; β-catenin detected by western blot; IgG IP as control

## β-catenin (from UniProt P35222 1-781)
  binding: binds
